Experimental data: PubChem BioAssay AID493246 (Drosophila RNAi Screening Center, 2011)

Aim: 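Genes fly cells need to grow and stay alive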 (primary screen)
Cell system: Drosophila Kc and S2R+ cells
Knock-down reagent: long dsRNA against Drosophila genes
Detection: 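Cell number per well after knock-down, printed as raw plate values; calls were based on per-plate z-scores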
Scale: Kc cell number and S2R+ cell number: higher = more cells remaining
Call rule: 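Counted as a hit if cell number falls by a z-score of at least 3 within its plate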
In all, the deposit lists about 21,000 reagents; shown is an unselected part of those with a known target gene and a result. Over the whole deposit, 429 (2%) got an active call. 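Values are raw and not normalised between plates; calls rest on per-plate z-scores that were not deposited.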 The numbers tell different reagents against one gene apart. Names joined by + are all predicted targets of the reagent. The record does not give: the amount of reagent, the time to read-out.

Kc cell number, rep 1	Kc cell number, rep 2	S2R+ cell number, rep 1	S2R+ cell number, rep 2	Outcome	Target gene	reagent
1.40e6	1.46e6	1.25e6	1.20e6	inactive	CG12105	1
1.82e6	1.72e6	1.35e6	1.42e6	inactive	Dbp73D (Dead box protein 73D)	1
1.72e6	1.78e6	1.20e6	1.34e6	inactive	ClC-a (Chloride channel-a)	1
1.60e6	1.73e6	1.34e6	1.35e6	inactive	ClC-a (Chloride channel-a)	2
1.45e6	1.55e6	1.15e6	1.17e6	inactive	ClC-a (Chloride channel-a)	3
1.53e6	1.45e6	1.11e6	1.29e6	inactive	CG11164	1
1.29e6	1.35e6	1.13e6	1.21e6	inactive	CG6230	1
1.59e6	1.59e6	1.39e6	1.49e6	inactive	CG14759	1
5.47e5		7.98e5		inactive	CG30109 + CG30108	1
1.38e6	1.38e6	1.11e6	1.27e6	inactive	CG8870	1
1.24e6	1.38e6	1.03e6	1.21e6	inactive	Naa30B (N(alpha)-acetyltransferase 30 B)	1
1.61e6	1.65e6	1.36e6	1.47e6	inactive	CG2656	1
1.29e6	1.39e6	5.55e5	6.92e5	inactive	grk (gurken)	1
1.52e6	1.63e6	7.40e5	8.42e5	inactive	org-1 (optomotor-blind-related-gene-1)	1
1.37e6	1.56e6	1.21e6	1.32e6	inactive	CG32437	1
1.25e6	1.26e6	1.16e6	1.26e6	inactive	CG14879	1
1.69e6	1.71e6	1.20e6	1.34e6	inactive	CG7329	1
5.90e5		8.67e5		inactive	Boh1 (Buddy of Hmr 1)	1
1.75e6	1.68e6	1.42e6	1.58e6	inactive	Cubn2 (Cubilin 2)	1
1.54e6	1.70e6	1.02e6	1.11e6	inactive	CG6738	1
1.58e6	1.66e6	1.01e6	1.13e6	inactive	TwdlM (TweedleM)	1
1.42e6	1.42e6	6.25e5	7.84e5	inactive	Snx6 (Sorting nexin 6)	1
1.48e6	1.55e6	1.08e6	1.20e6	inactive	sws (swiss cheese)	1
1.59e6	1.55e6	1.27e6	1.40e6	inactive	Ugt37B1 (UDP-glycosyltransferase family 37 member B1)	1
1.53e6	1.46e6	1.16e6	1.30e6	inactive	CG33282	1
1.62e6	1.77e6	1.30e6	1.49e6	inactive	STUB1 (STIP1 homology and U-box containing protein 1)	1
1.87e6	1.79e6	1.16e6	1.29e6	inactive	mab-21	1
1.58e6	1.66e6	1.19e6	1.36e6	inactive	CG13023	1
1.42e6	1.55e6	1.33e6	1.31e6	inactive	CG13023	2
1.70e6	1.81e6	1.05e6	1.29e6	inactive	Cip4 (Cdc42-interacting protein 4)	1
1.38e6	1.45e6	1.24e6	1.20e6	inactive	Cip4 (Cdc42-interacting protein 4)	2
1.50e6	1.60e6	1.12e6	1.21e6	inactive	COX7A (Cytochrome c oxidase subunit 7A)	1
1.46e6	1.68e6	9.37e5	1.00e6	inactive	Bdbt (Bride of doubletime)	1
1.58e6	1.58e6	1.23e6	1.36e6	inactive	CG18304	1
1.60e6	1.89e6	9.06e5	1.06e6	inactive	alphaTub67C (alpha-Tubulin at 67C)	1
1.43e6	1.53e6	1.01e6	1.06e6	inactive	Patsas	1
1.50e6	1.65e6	1.02e6	1.04e6	inactive	CG43102	1
1.13e6	1.27e6	9.80e5	1.09e6	inactive	CG43102	2
1.48e6	1.24e6	1.07e6	1.32e6	inactive	mthl9 (methuselah-like 9)	1
1.38e6	1.36e6	1.01e6	1.04e6	inactive	Cow	1
1.26e6	1.55e6	1.12e6	1.18e6	inactive	TwdlX (TweedleX)	1
1.44e6	1.50e6	1.04e6	1.13e6	inactive	CG5326	1
1.47e6	1.61e6	1.13e6	1.17e6	inactive	CG5326	2
1.60e6	1.64e6	1.34e6	1.51e6	inactive	CG30037	1
1.64e6	1.66e6	8.22e5	9.10e5	inactive	Trf2 (TATA box binding protein-related factor 2)	1
1.29e6	1.32e6	1.25e6	1.38e6	inactive	SNCF (SoxNeuro Co-Factor)	1
1.75e6	1.71e6	1.34e6	1.48e6	inactive	CG17364	1
1.33e6	1.38e6	1.03e6	1.16e6	inactive	CG17364	2
1.48e6	1.45e6	1.03e6	1.12e6	inactive	CG9568	1
1.41e6	1.43e6	1.26e6	1.13e6	inactive	Mp (Multiplexin)	1
1.27e6	1.27e6	1.16e6	1.26e6	inactive	Mp (Multiplexin)	2
1.45e6	1.44e6	1.10e6	1.15e6	inactive	Mp (Multiplexin)	3
1.19e6	1.26e6	7.64e5	8.10e5	inactive	ex (expanded)	1
1.17e6	1.28e6	7.80e5	9.11e5	inactive	SmE (Small ribonucleoprotein particle protein SmE)	1
1.75e6	1.78e6	1.19e6	2.11e5	inactive	CG15160	1
1.50e6	1.45e6	1.05e6	1.15e6	inactive	CG30026	1
1.84e6	1.78e6	1.44e6	1.61e6	inactive	CG8858	1
1.34e6	1.35e6	9.90e5	1.10e6	inactive	CG3581	1
1.59e6	1.63e6	1.02e6	1.16e6	inactive	HP1b (Heterochromatin Protein 1b)	1

Laid out differently: 3 of the entries above.
CG30026: Kc cell number, rep 1 = 1.50e6; Kc cell number, rep 2 = 1.45e6; S2R+ cell number, rep 1 = 1.05e6; S2R+ cell number, rep 2 = 1.15e6; Outcome = inactive
CG8858: Kc cell number, rep 1 = 1.84e6; Kc cell number, rep 2 = 1.78e6; S2R+ cell number, rep 1 = 1.44e6; S2R+ cell number, rep 2 = 1.61e6; Outcome = inactive
CG3581: Kc cell number, rep 1 = 1.34e6; Kc cell number, rep 2 = 1.35e6; S2R+ cell number, rep 1 = 9.90e5; S2R+ cell number, rep 2 = 1.10e6; Outcome = inactive
